PubChem BioAssay AID1259308, NCATS – 2017
The whole screen tested about 59,000 reagents; shown is an unselected part. Of all reagents, about 1,510 (2.6%) got an active call. 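Calls use total luciferase alone and ignore viability, so some active siRNAs may act by altering cell number.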 A number with no mark means an inactive call. Reagents against one gene are numbered here.

- Test: 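Knock-downs that increase output of a recombinant reporter protein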 (primary screen)
- Cells: human HEK293 embryonic kidney cells stably expressing firefly luciferase (HEK-CMV-Luc2-Hygro)
- Reagent: single siRNA against human genes, 0.8 pmol siRNA per well
- Timing: 72 h
- Measurement: 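Luciferase light (ONE-Glo) measured on one replicate plate set and viability (CellTiter-Glo) on the other, scaled to a negative control siRNA, with robust z-scores and luciferase per cell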
- Scale: total luciferase, z-score and total luciferase, % of control: higher = more reporter protein produced; luciferase per cell, z-score: higher = more reporter output per viable cell; viable cells, % of control: higher = more viable cells
- Hit rule: 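An siRNA counts as active if its total luciferase robust z-score exceeds 3; genes with two or more such siRNAs out of three were retested with fresh siRNAs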
- Meaning of the calls: active = raised luciferase; inactive = no rise

no.	Gene	reagent	total luciferase, z-score	total luciferase, % of control	luciferase per cell, z-score	viable cells, % of control
1	USP11 (ubiquitin specific peptidase 11)	1	-2.24	37.3	-3.4	102
2	USP11 (ubiquitin specific peptidase 11)	2	-0.00373	81.8	-0.317	99.4
3	USP11 (ubiquitin specific peptidase 11)	3	0.554	92.9	0.757	85.1
4	LINC00304 (long independently transcribed non-coding RNA 304)	1	-0.488	72.2	1.87	49.3
5	LINC00304 (long independently transcribed non-coding RNA 304)	2	-0.571	70.5	-0.425	88.1
6	LINC00304 (long independently transcribed non-coding RNA 304)	3	-1.18	58.3	-1.34	92.7
7	SNU13 (small nuclear ribonucleoprotein 13)	1	0.597	93.8	-0.238	112
8	SNU13 (small nuclear ribonucleoprotein 13)	2	1.08	103	4.9	31.8
9	SNU13 (small nuclear ribonucleoprotein 13)	3	1.3	108	5.8	26.1
10	XRCC2 (X-ray repair cross complementing 2)	1	-0.338	75.2	-0.373	92.6
11	XRCC2 (X-ray repair cross complementing 2)	2	0.473	91.3	-0.182	107
12	XRCC2 (X-ray repair cross complementing 2)	3	0.965	101	0.353	103
13	SNAPIN (SNAP associated protein)	1	1.06	103	0.834	92.4
14	SNAPIN (SNAP associated protein)	2	-0.995	62.1	-1.5	103
15	SNAPIN (SNAP associated protein)	3	-1.04	61.2	-1.12	91.8
16	GRAPL-AS1 (GRAPL antisense RNA 1)	1	1.13	104	1.24	84.3
17	GRAPL-AS1 (GRAPL antisense RNA 1)	2	0.341	88.7	0.415	88.8
18	GRAPL-AS1 (GRAPL antisense RNA 1)	3	0.284	87.5	-0.335	107
19	BEND6 (BEN domain containing 6)	1	-0.879	64.4	-0.663	85.7
20	BEND6 (BEN domain containing 6)	2	0.179	85.4	-0.182	100
21	BEND6 (BEN domain containing 6)	3	-0.495	72	0.0247	80
22	ANXA2R (annexin A2 receptor)	1	0.0634	83.1	0.399	83.6
23	ANXA2R (annexin A2 receptor)	2	-0.464	72.7	-1.01	106
24	ANXA2R (annexin A2 receptor)	3	0.287	87.6	-0.408	109
25	RPL21P62 (ribosomal protein L21 pseudogene 62)	1	-1.34	55.2	-0.0798	63
26	RPL21P62 (ribosomal protein L21 pseudogene 62)	2	-3.27	16.8	-2.62	37.4
27	RPL21P62 (ribosomal protein L21 pseudogene 62)	3	-2.88	24.6	-2.32	50.6
28	FAM151A (family with sequence similarity 151 member A)	1	-1.15	59.1	-0.716	79.7
29	FAM151A (family with sequence similarity 151 member A)	2	-1.26	56.9	-1.36	90.8
30	FAM151A (family with sequence similarity 151 member A)	3	-0.403	73.9	-0.231	87.7
31	KCNE4	1	1.25	107	1.25	85.8
32	KCNE4	2	1.33	108	0.602	103
33	KCNE4	3	1.71	116	0.82	104
34	SLC26A2	1	0.153	84.9	0.0719	93.1
35	SLC26A2	2	-0.565	70.6	-1.52	118
36	SLC26A2	3	-0.523	71.5	-0.224	84.7
37	CLIP3 (CAP-Gly domain containing linker protein 3)	1	-0.238	77.1	-0.657	102
38	CLIP3 (CAP-Gly domain containing linker protein 3)	2	-0.315	75.6	-0.474	95.8
39	CLIP3 (CAP-Gly domain containing linker protein 3)	3	-2.81	25.9	-1.25	40.2
40	DNAAF8 (dynein axonemal assembly factor 8)	1	1.84	119	1.19	96.9
41	DNAAF8 (dynein axonemal assembly factor 8)	2	0.4	89.8	0.56	86.6
42	DNAAF8 (dynein axonemal assembly factor 8)	3	-0.654	68.9	-0.123	79.5
43	MAGEA12 (MAGE family member A12)	1	-1.87	44.6	-1.31	70.4
44	MAGEA12 (MAGE family member A12)	2	-1.27	56.6	-0.864	79.4
45	MAGEA12 (MAGE family member A12)	3	1.05	103	1.79	71.7
46	DNAAF5 (dynein axonemal assembly factor 5)	1	0.494	91.7	0.657	86.2
47	DNAAF5 (dynein axonemal assembly factor 5)	2	-0.624	69.5	-0.265	83.2
48	DNAAF5 (dynein axonemal assembly factor 5)	3	-1.41	53.8	-0.952	77.2
49	SYNGR1 (synaptogyrin 1)	1	-1.2	58	-0.924	82.7
50	SYNGR1 (synaptogyrin 1)	2	0.653	94.9	0.589	90.8
51	SYNGR1 (synaptogyrin 1)	3	0.816	98.1	0.307	101
52	CHRM1 (cholinergic receptor muscarinic 1)	1	3.44 (active)	150	2.99	76.5
53	CHRM1 (cholinergic receptor muscarinic 1)	2	0.485	91.5	-0.235	109
54	CHRM1 (cholinergic receptor muscarinic 1)	3	-0.779	66.4	-0.604	87
55	H1-7 (H1.7 linker histone)	1	0.252	86.9	0.422	86.9
56	H1-7 (H1.7 linker histone)	2	-0.401	73.9	-0.323	89.9
57	H1-7 (H1.7 linker histone)	3	1.89	119	1.63	86.9
58	VIL1 (villin 1)	1	1.34	109	1.09	91.2
59	VIL1 (villin 1)	2	0.198	85.8	0.124	92.8
60	VIL1 (villin 1)	3	-0.647	69	-0.85	96.5
61	TLE5 (TLE family member 5, transcriptional modulator)	1	-0.43	73.3	-0.0915	83.9
62	TLE5 (TLE family member 5, transcriptional modulator)	2	1.09	103	0.528	101
63	TLE5 (TLE family member 5, transcriptional modulator)	3	1.61	114	1.36	88.9
64	LY6G5B (lymphocyte antigen 6 family member G5B)	1	-1.09	60.3	0.701	56
65	LY6G5B (lymphocyte antigen 6 family member G5B)	2	-0.29	76.1	-0.462	96.1
66	LY6G5B (lymphocyte antigen 6 family member G5B)	3	-1.35	55.1	-1.07	81.6
67	OR5I1 (olfactory receptor family 5 subfamily I member 1)	1	-0.643	69.1	-0.989	100
68	OR5I1 (olfactory receptor family 5 subfamily I member 1)	2	-1.08	60.4	-0.445	75.9
69	OR5I1 (olfactory receptor family 5 subfamily I member 1)	3	0.132	84.5	-0.123	97.5
70	SYNM (synemin)	1	0.992	102	1.01	87
71	SYNM (synemin)	2	0.241	86.7	-0.682	116
72	SYNM (synemin)	3	-0.335	75.2	-0.871	106
73	RNASE12 (ribonuclease A family member 12 (inactive))	1	-0.356	74.8	-0.431	93.6
74	RNASE12 (ribonuclease A family member 12 (inactive))	2	-1.78	46.5	-1.69	81.3
75	RNASE12 (ribonuclease A family member 12 (inactive))	3	-1.52	51.6	-0.374	63.7

Only “luciferase per cell, z-score” (12 entries from above):
VIL1 (villin 1) #1: 1.09
VIL1 (villin 1) #2: 0.124
VIL1 (villin 1) #3: -0.85
TLE5 (TLE family member 5, transcriptional modulator) #1: -0.0915
TLE5 (TLE family member 5, transcriptional modulator) #2: 0.528
TLE5 (TLE family member 5, transcriptional modulator) #3: 1.36
LY6G5B (lymphocyte antigen 6 family member G5B) #1: 0.701
LY6G5B (lymphocyte antigen 6 family member G5B) #2: -0.462
LY6G5B (lymphocyte antigen 6 family member G5B) #3: -1.07
OR5I1 (olfactory receptor family 5 subfamily I member 1) #1: -0.989
OR5I1 (olfactory receptor family 5 subfamily I member 1) #2: -0.445
OR5I1 (olfactory receptor family 5 subfamily I member 1) #3: -0.123
